Assay results as given in patent US20080152653A1.
These are yes or no findings as the source states them, for the method shown. Binding can be weak; no strength is given.

Molecular target: mouse α9 integrin (mouse)
Assay: cell adhesion screening of transfected cells

SVVYGLR [SVVYGLR peptide of human OPN] was tested, and the binding was “binds”.
